Results are given in words; binding and its absence hold for the method and conditions named.
Molecular target: PbE3-2 without signal peptide, bait in pGBKT7 (Plasmodiophora brassicae)
Assay: two-hybrid

B1: Arabidopsis cysteine protease 1 (AtCP1), yeast two-hybrid prey (enzyme, UniProt Q9FDX6 1-160)
chain: MCPSGRIAIPITTTANPNFRPAFEIIDTDHDGKISSDDLRAFYAGIPSGENNDETMIGTMISVADANKDGFVEFDEFEKVLETTPFSRSGNGGDDGLMKDVFKVMDKDGDGRLSYGDLKSYMDSAGLAVTDDEIKSMIRLAGGDLNDGVSFDGLLKIFGC
- binding: no binding
